Some results were stated once for a whole list of compounds, not compound by compound. At least one compound was matched to its structure with a doubt left.
Assay: Evaluation of PAH treatment using an implantable pressure sensor to monitor PAP
Format: in vivo, human
Settings: person with PAH; initially PAP above 30 mm Hg; treatment with Lasix and then Metolaxone; FIG. 1

| Structure (SMILES) | PAP (pulmonary artery pressure) after treatment |
| --- | --- |
| NS(=O)(=O)c1cc(C(=O)O)c(NCc2ccco2)cc1Cl [Lasix] | below 25 mm Hg |
| Cc1ccccc1N1C(=O)c2cc(S(N)(=O)=O)c(Cl)cc2NC1C (centres unmarked) [Metolaxone] | below 25 mm Hg |
